Test results published in patent publication US11266616B2, “Compositions and methods for inhibiting kinase activity” (BRANDEIS UNIVERSITY, priority 2016, dated 2022).

System: HEK293 cells
Test: Delivery of sGFP-monobody fusion polypeptides into cultured HEK293 cells (microscopy)
Assay type: cell-based, human
Conditions: for delivery into HEK293 cells: FIG. 17F

Molecule	delivery into HEK293 cells	exposure time for optimal cell delivery (HEK293 cells, FIG. 17D) [h]
sGFP-Mb54: fusion polypeptide of supercharged GFP and activating monobody Mb54 (aka Mb1) (protein, left off: large carriers) GSVSSVPTKLEVVAATPTSLLISWDAQTYQMYDYVSYYRITYGETGGNSPVQEFTVPGYYSTATISGLKPGVDYTITVYAEGYYSSYSPISINYRT	delivered into cells	–
sGFP-Mb6: fusion polypeptide of supercharged GFP and activity-neutral monobody Mb6 (protein, left off: large carriers) GSVSSVPTKLEVVAATPTSLLISWDAFGHQYEPVYYYRITYGETGGNSPVQEFTVPGYYSTATISGLKPGVDYTITVYAWYVDGSYSSPISINYRT	delivered into cells	–
sGFP-Mb60: fusion polypeptide of supercharged GFP and inhibiting monobody Mb60 (aka Mb2) (protein, left off: large carriers) GSVSSVPTKLEVVAATPTSLLISWDAPAVTVVHYVITYGETGGNSPVQEFTVPGSKSTATISGLKPGVDYTITVYAIDFYWGSYSPISINYRT	delivered into cells	7
